Article PMC6194124
Results are given in words; binding and its absence hold for the method and conditions named. In cells and extracts the contact can be indirect. Some results given as binding are weak or reduced against the parent protein; the word gives no strength. Tags and fused reporters may be left off the sequences shown.

Chains of the proteins cited; added tags and fusions are not shown.
UniProt Q925U4: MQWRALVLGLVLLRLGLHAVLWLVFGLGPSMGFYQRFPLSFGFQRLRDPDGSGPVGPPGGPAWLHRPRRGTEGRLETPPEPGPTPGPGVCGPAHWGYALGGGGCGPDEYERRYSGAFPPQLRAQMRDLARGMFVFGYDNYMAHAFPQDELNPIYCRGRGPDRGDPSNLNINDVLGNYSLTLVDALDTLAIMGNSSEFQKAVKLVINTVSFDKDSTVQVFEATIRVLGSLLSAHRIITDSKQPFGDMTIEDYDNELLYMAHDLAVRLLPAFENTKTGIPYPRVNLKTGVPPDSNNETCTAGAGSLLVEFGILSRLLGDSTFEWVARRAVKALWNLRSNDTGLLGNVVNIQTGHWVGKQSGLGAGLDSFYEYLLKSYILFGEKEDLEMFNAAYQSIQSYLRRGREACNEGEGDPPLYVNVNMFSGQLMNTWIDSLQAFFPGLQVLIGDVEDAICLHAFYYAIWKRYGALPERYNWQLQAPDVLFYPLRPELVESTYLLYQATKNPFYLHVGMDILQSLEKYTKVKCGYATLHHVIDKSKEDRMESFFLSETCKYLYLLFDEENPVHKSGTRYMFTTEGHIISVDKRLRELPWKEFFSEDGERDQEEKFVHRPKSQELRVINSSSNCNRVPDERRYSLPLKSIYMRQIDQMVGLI

Key:
EDEM1-HA = EDEM1-HA (UniProt Q925U4); assay: co-IP; HEK 293 cells expressing EDEM1-HA or EDEM2-HA with FLAG-TXNDC11 or FLAG-PDI; lysed in mild conditions (1% NP-40, 50 mM Tris/HCl pH 8, 150 mM NaCl); immunoprecipitated with anti-EDEM1 or anti-EDEM2, immunoblotted with anti-FLAG
EDEM2-HA = target: T1, EDEM2-HA (UniProt Q9BV94); assay: as above
T1 sequence: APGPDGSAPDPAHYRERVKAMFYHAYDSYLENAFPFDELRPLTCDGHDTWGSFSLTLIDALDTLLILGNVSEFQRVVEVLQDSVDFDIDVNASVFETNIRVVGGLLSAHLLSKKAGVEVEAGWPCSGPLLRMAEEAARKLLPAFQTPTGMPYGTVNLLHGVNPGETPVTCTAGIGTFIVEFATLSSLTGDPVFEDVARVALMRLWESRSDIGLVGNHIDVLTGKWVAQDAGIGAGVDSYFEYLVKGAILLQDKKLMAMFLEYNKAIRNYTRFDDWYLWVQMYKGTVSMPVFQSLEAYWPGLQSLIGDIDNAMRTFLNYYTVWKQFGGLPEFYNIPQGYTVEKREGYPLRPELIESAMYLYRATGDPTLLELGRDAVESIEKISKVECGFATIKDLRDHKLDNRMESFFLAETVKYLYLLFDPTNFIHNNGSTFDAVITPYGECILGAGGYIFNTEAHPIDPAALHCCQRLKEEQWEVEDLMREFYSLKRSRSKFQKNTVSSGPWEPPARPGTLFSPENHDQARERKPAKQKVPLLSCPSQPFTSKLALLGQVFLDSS

binding (EDEM1-HA): binds | binding (EDEM2-HA): binds
B1: FLAG-TXNDC11 (enzyme, UniProt Q6PKC3 1-985)
chain: MSECGGRGGGSSSSEDAEDEGGGGGGPAGSDCLSSSPTLATASSAGRLRRGLRGAFLMARQRPELLCGAVALGCALLLALKFTCSRAKDVIIPAKPPVSFFSLRSPVLDLFQGQLDYAEYVRRDSEVVLLFFYAPWCGQSIAARAEIEQAASRLSDQVLFVAINCWWNQGKCRKQKHFFYFPVIYLYHRSFGPIEYKGPMSAVYIEKFVRRVMKPLLYIPSQSELLDFLSNYEPGVLGYFEFSGSPQPPGYLTFFTSALHSLKKALESTSSPRALVSFTGEWHLETKIYVLDYLGTVRFGVITNKHLAKLVSLVHSGSVYLHRHFNTSLVFPREVLNYTAENICKWALENQETLFRWLRPHGGKSLLLNNELKKGPALFLFIPFNPLAESHPLIDEITEVALEYNNCHGDQVVERLLQHLRRVDAPVLESLALEVPAQLPDPPTITASPCCNTVVLPQWHSFSRTHNVCELCVNQTSGGMKPSSVSVPQCSFFEMAAALDSFYLKEQTFYHVASDSIECSNFLTSYSPFSYYTACCRTISRGVSGFIDSEQGVFEAPTVAFSSLEKKCEVDAPSSVPHIEENRYLFPEVDMTSTNFTGLSCRTNKTLNIYLLDSNLFWLYAERLGAPSSTQVKEFAAIVDVKEESHYILDPKQALMKLTLESFIQNFSVLYSPLKRHLIGSGSAQFPSQHLITEVTTDTFWEVVLQKQDVLLLYYAPWCGFCPSLNHIFIQLARNLPMDTFTVARIDVSQNDLPWEFMVDRLPTVLFFPCNRKDLSVKYPEDVPITLPNLLRFILHHSDPASSPQNVANSPTKECLQSEAVLQRGHISHLEREIQKLRAEISSLQRAQVQVESQLSSARRDEHRLRQQQRALEEQHSLLHAHSEQLQALYEQKTRELQELARKLQELADASENLLTENTWLKILVATMERKLEGRDGAESLAAQREVHPKQPEPSATPQLPGSSPPPANVSATLVSERNKENRTD
